Primary screen of a compound library

Sequences of proteins named here, by UniProt entry; tags and fusion partners are left off. Residues count along the entry.
UniProt A4I591, 1-473: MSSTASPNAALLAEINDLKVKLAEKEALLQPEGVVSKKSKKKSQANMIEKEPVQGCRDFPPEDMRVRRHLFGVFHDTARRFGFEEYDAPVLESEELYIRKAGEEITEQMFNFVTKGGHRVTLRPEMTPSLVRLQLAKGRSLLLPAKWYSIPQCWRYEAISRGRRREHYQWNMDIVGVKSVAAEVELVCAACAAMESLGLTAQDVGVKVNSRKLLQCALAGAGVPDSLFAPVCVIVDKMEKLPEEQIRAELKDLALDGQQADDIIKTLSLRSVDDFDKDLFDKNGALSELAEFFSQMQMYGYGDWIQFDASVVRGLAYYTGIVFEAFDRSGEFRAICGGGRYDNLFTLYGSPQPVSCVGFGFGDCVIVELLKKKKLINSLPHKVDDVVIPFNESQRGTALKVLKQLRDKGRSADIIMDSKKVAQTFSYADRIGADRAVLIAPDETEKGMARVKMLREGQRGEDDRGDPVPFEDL
UniProt P9WPC5, whole entry: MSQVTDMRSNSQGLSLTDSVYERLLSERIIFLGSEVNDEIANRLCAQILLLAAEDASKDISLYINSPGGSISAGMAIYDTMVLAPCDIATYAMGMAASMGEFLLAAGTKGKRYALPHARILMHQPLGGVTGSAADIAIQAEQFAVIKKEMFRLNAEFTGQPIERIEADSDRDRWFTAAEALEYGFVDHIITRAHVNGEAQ
UniProt P9WPC3, whole entry partner: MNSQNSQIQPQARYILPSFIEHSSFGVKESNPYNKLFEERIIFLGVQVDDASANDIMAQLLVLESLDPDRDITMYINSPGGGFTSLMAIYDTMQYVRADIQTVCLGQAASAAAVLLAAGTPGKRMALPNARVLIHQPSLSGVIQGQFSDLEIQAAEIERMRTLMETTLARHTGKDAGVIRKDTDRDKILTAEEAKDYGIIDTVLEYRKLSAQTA
UniProt Q4DA54, 1-478: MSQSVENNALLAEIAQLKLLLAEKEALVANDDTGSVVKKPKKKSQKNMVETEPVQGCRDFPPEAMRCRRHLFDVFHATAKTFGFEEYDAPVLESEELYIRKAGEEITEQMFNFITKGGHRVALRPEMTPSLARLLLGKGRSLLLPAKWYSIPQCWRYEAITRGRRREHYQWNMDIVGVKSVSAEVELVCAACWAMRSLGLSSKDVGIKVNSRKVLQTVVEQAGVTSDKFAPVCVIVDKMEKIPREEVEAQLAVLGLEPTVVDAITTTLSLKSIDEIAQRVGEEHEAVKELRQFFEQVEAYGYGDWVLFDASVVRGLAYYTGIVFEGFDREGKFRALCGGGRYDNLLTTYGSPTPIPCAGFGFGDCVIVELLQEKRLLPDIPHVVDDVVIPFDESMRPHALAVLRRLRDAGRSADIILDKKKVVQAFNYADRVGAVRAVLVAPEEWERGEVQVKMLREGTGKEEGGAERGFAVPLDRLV

The filed quantity is “Percent Effect” (%). The controls that fix the scale are not given in the record; negative values are as filed. The compounds are a random part of those screened. A dash means the value is not listed here; it may have been measured.

Toxoplasma: 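Assay of Toxoplasma gondii numbers, read through their beta-galactosidase reporter with a colour substrate. Tested at 10 µM. The record gives no direction; the compounds picked for IC50 retests had high values, so higher reads as fewer parasites. About 67,000 compounds were tested under these conditions; 0.38% (about 260) showed 50% or more at least once.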
T. brucei: 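Whole-parasite assay of Trypanosoma brucei over 72 hours; the read-out is not stated. Tested at 30 µM. Direction is inferred from retests: higher values go with stronger inhibition. Values scatter widely below zero; nearly all retest evidence comes from the higher of the two concentrations used. Size under these conditions: about 64,000 compounds, about 940 of them at 50% or above in at least one test.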
LiHisRS: 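Histidine-tRNA ligase, Leishmania infantum (UniProt A4I591). Enzyme assay of histidyl-tRNA synthetase; the read-out is not stated. Concentration: 30 µM. Direction is inferred from retests: higher values go with stronger inhibition. The assay is labelled LdHisRS but filed under L. infantum. Size under these conditions: about 69,000 compounds, about 410 of them at 50% or above in at least one test.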
ClpP1P2: 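Protease assay of ClpP1P2, read by the AMC dye that it sets free. Target: ClpP1P2, Mycobacterium tuberculosis (UniProt P9WPC5 and UniProt P9WPC3). Tested at 50 µM. Direction is inferred from only a few compounds that gave an IC50; most scored high, so higher reads as stronger inhibition. Most other retested compounds had strongly negative values. Of about 69,000 compounds tested this way, about 10 (0.015%) reached 50% or more in at least one test.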
TcHisRS: 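Enzyme assay of histidyl-tRNA synthetase; the read-out is not stated. Target: Histidine-tRNA ligase, Trypanosoma cruzi CL Brener (UniProt Q4DA54). Compounds at 30 µM. Higher reads as stronger inhibition (inferred: compounds with an IC50 in retests scored well above the rest). Of about 69,000 compounds tested this way, about 31 (0.045%) reached 50% or more in at least one test.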

| SMILES | Toxoplasma | T. brucei | LiHisRS | ClpP1P2 | TcHisRS |
|---|---|---|---|---|---|
| `COCCc1ncc(CN2CCC(Oc3ccccc3C)CC2)cn1` | -7.834% | 15% | 20% | -3.053% | -1.075% |
| `Cc1ccc2c(c1)nc1n2[C@@H](CNC(=O)c2ccccn2)COC1` | -2.863% | -40.22% | 25.68% | -8.076% | -1.087% |
| `CN(CCc1ccccn1)S(=O)(=O)N1CCCC1c1ccco1` (configuration not stated) | 2.154% | -85.62% | 9.231% | 4.272% | 3.448% |
| `Cc1ncc(CN(C)C(=O)Nc2ccc(CN3CCOC3=O)cc2)s1` | 9.466% | 6.301% | 25.71% | 10.34% | 5.195% |
| `CC(C)NC(=O)C1CCN(c2nc3nc[nH]c(=O)c3s2)CC1` | - | -8.807% | -13.04% | 2.037% | 10.89% |
| `COc1ccc2[nH]cc(C(=O)CNc3nccs3)c2c1` | - | - | 12.5% | -28.12% | 7.292% |
| `CC(=O)N[C@@H]1CN(C(=O)c2cccc(C)c2)C[C@H]1O` | 9.494% | -12.82% | 13.99% | -14.11% | 2.26% |
| `CCOC(=O)CNC(=O)c1cccnc1Sc1cc(OC)ccc1OC` | 1.533% | -15.58% | 7.921% | 2.59% | 3.409% |
| `CCNC(=O)c1ccc(NC2CCOC3(CCCCC3)C2)nn1` (configuration not stated) | 0.459% | -59.17% | -1.036% | -4.737% | 4.972% |
| `Cn1ccnc1CN1C(=O)CO[C@H]2CN(Cc3ccc(F)c(F)c3)C[C@H]21` | - | - | 20.27% | 6.004% | -1.087% |
| `CNc1cccc(C2CCN(C(=O)c3cccnc3)CC2)n1` | -5.206% | -0.8751% | 12.37% | -5.674% | 10% |
| `O=C(O)C(F)(F)F.O=C(O)C(F)(F)F.[H][C@@]12C[C@H](C(=O)N(C)C)CN(Cc3ccc4ccccc4n3)[C@]1([H])CCO2` | 4.497% | -111.9% | - | - | - |
| `Cc1nnc([C@@]23CCO[C@@H]2CCN(Cc2scnc2C)C3)o1` | - | - | 11.88% | -4.048% | 3.518% |
| `CCc1nc(Nc2ccc(C(=O)NC)cc2)c2c(n1)c(C)nn2CC` | 64.18% | 17.47% | 17.24% | 14.04% | 0.8696% |
| `COCCCNC(=O)CCn1nc(C)c2ccccc21` | -2.75% | 61.88% | 15.53% | 3.899% | 0.5464% |
| `CCn1cc(N)c(C(=O)NCc2cnn(C)c2)n1` | -0.1692% | -6.276% | 8.491% | -16.44% | 4.184% |
| `CN1CCC2(CC1)C(=O)N(CC1CC1)c1ccccc12` | - | - | 36.59% | 3.003% | -1.504% |
| `CCn1c(C)cc(C(=O)N2CCC(NC(=O)c3ccc(C)o3)CC2)c1C` | 5.263% | -64.45% | 0% | -5.749% | -1.84% |
| `Cc1cc(C)n(C2CCCN(C(=O)CCNc3ncccn3)C2)n1` (configuration not stated) | -39.67% | 9.717% | 10.53% | -4.861% | 5.444% |
| `O=C([C@H]1C[C@H]2OCC[C@H]2N(C(=O)C2CCOCC2)C1)N1CCCCO1` | - | - | 15.09% | -1.028% | 0.5405% |
| `COCCNC(=O)C[C@@H]1COC[C@H]2CN(C(=O)COC)C[C@@H]12` | - | - | 9.91% | 7.35% | 5.525% |
| `CCCN1CCN(C(=O)c2ccc3ccccc3n2)[C@H]2CS(=O)(=O)C[C@H]21` | - | - | 25% | 6.006% | 3.061% |
| `Cn1nc(CNC(=O)c2ccc(OC(F)(F)F)cc2)c2c1CCOC2` | -0.03906% | 1.999% | 6.849% | -11.7% | -1% |
| `Cc1noc([C@@H]2C[C@H](NC(=O)NC3CCCCC3)CN2C)n1` | 5.339% | -9.424% | 9.459% | -5.046% | 0% |
| `CC(C)N(CCCNC(=O)C1CCOCC1)S(C)(=O)=O` | 10.28% | 3.746% | 18.99% | 1.821% | 0.431% |
| `CCn1cnnc1CNC(=O)N(C)Cc1cccc(OC(F)F)c1` | 2.618% | -14.71% | 7.018% | 25.78% | 0.8596% |
| `CN1CC2(COCCN(C(=O)c3ccco3)C2)OCC1=O` (configuration not stated) | -1.603% | -68.57% | 7.547% | 2.612% | 0.5405% |
| `CS(=O)(=O)N1CCc2sc(C(=O)NCc3ccncc3)cc21` | 7.098% | -5.657% | 20.83% | -12.31% | 6.667% |
| `COc1ccc(NC(=O)c2ccc(-n3ncc(C#N)c3N)cc2)cn1` | - | -3.386% | -34.83% | 2.5% | 6.767% |
| `Cn1cccc1C(=O)N1CC[C@H]2[C@@H]1CCC(=O)N2CC1CC1` | - | - | 21.05% | -5.279% | 4.301% |
| `Cc1nn(C)c(N(C)C)c1CNCc1cccc(Cn2cncn2)c1` | 4.97% | -11.74% | 2.609% | -3.076% | 1.69% |
| `CN(C)c1ccc(C(=O)Nc2cn[nH]c2)cc1` | 10.39% | 16.6% | 17.86% | -4.529% | 8.284% |
| `O=C(NC1CC1)[C@@H]1CN(Cc2ccc3c(c2)OCO3)C[C@H]2OCC[C@H]21` | - | - | 19.66% | -1.502% | 4.813% |

3 of the entries, repeated:

Cc1ccc2c(c1)nc1n2[C@@H](CNC(=O)c2ccccn2)COC1 gave Toxoplasma: -2.863%; T. brucei: -40.22%; LiHisRS: 25.68%; ClpP1P2: -8.076%; TcHisRS: -1.087%.
CCn1c(C)cc(C(=O)N2CCC(NC(=O)c3ccc(C)o3)CC2)c1C gave Toxoplasma: 5.263%; T. brucei: -64.45%; LiHisRS: 0%; ClpP1P2: -5.749%; TcHisRS: -1.84%.
CCCN1CCN(C(=O)c2ccc3ccccc3n2)[C@H]2CS(=O)(=O)C[C@H]21 gave LiHisRS: 25%; ClpP1P2: 6.006%; TcHisRS: 3.061%.

Measurements from “University of Dundee, Small-Polar-MMV Screening Library” (2021), ChEMBL document CHEMBL3988442.